Results reported in article PMC5612949.

Amino acid sequences for entries named in this document (tags omitted).
UniProt Q09028: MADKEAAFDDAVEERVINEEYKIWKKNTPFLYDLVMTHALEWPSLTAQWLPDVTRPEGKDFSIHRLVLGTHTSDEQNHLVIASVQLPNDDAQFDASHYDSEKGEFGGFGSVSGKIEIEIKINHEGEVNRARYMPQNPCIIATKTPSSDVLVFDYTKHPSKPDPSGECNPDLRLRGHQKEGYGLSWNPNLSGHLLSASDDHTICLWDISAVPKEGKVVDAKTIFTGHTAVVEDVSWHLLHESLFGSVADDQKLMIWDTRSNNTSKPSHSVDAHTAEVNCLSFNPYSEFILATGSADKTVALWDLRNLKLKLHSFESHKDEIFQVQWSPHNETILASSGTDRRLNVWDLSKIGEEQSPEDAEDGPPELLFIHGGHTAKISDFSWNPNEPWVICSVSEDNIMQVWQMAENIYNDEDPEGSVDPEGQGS
UniProt Q9UKL0: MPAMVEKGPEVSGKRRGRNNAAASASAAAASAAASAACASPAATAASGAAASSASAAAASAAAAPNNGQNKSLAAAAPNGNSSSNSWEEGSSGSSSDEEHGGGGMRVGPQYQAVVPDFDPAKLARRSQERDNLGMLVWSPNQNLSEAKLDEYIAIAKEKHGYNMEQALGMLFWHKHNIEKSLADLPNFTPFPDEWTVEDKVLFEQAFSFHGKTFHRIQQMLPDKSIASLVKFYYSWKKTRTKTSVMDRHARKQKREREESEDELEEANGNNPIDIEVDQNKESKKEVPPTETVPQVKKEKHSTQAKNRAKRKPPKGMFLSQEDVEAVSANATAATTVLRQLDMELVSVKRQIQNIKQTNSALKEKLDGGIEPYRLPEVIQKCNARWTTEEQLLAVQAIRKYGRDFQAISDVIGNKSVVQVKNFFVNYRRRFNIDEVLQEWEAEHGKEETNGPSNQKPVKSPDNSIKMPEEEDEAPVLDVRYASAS
UniProt Q93008: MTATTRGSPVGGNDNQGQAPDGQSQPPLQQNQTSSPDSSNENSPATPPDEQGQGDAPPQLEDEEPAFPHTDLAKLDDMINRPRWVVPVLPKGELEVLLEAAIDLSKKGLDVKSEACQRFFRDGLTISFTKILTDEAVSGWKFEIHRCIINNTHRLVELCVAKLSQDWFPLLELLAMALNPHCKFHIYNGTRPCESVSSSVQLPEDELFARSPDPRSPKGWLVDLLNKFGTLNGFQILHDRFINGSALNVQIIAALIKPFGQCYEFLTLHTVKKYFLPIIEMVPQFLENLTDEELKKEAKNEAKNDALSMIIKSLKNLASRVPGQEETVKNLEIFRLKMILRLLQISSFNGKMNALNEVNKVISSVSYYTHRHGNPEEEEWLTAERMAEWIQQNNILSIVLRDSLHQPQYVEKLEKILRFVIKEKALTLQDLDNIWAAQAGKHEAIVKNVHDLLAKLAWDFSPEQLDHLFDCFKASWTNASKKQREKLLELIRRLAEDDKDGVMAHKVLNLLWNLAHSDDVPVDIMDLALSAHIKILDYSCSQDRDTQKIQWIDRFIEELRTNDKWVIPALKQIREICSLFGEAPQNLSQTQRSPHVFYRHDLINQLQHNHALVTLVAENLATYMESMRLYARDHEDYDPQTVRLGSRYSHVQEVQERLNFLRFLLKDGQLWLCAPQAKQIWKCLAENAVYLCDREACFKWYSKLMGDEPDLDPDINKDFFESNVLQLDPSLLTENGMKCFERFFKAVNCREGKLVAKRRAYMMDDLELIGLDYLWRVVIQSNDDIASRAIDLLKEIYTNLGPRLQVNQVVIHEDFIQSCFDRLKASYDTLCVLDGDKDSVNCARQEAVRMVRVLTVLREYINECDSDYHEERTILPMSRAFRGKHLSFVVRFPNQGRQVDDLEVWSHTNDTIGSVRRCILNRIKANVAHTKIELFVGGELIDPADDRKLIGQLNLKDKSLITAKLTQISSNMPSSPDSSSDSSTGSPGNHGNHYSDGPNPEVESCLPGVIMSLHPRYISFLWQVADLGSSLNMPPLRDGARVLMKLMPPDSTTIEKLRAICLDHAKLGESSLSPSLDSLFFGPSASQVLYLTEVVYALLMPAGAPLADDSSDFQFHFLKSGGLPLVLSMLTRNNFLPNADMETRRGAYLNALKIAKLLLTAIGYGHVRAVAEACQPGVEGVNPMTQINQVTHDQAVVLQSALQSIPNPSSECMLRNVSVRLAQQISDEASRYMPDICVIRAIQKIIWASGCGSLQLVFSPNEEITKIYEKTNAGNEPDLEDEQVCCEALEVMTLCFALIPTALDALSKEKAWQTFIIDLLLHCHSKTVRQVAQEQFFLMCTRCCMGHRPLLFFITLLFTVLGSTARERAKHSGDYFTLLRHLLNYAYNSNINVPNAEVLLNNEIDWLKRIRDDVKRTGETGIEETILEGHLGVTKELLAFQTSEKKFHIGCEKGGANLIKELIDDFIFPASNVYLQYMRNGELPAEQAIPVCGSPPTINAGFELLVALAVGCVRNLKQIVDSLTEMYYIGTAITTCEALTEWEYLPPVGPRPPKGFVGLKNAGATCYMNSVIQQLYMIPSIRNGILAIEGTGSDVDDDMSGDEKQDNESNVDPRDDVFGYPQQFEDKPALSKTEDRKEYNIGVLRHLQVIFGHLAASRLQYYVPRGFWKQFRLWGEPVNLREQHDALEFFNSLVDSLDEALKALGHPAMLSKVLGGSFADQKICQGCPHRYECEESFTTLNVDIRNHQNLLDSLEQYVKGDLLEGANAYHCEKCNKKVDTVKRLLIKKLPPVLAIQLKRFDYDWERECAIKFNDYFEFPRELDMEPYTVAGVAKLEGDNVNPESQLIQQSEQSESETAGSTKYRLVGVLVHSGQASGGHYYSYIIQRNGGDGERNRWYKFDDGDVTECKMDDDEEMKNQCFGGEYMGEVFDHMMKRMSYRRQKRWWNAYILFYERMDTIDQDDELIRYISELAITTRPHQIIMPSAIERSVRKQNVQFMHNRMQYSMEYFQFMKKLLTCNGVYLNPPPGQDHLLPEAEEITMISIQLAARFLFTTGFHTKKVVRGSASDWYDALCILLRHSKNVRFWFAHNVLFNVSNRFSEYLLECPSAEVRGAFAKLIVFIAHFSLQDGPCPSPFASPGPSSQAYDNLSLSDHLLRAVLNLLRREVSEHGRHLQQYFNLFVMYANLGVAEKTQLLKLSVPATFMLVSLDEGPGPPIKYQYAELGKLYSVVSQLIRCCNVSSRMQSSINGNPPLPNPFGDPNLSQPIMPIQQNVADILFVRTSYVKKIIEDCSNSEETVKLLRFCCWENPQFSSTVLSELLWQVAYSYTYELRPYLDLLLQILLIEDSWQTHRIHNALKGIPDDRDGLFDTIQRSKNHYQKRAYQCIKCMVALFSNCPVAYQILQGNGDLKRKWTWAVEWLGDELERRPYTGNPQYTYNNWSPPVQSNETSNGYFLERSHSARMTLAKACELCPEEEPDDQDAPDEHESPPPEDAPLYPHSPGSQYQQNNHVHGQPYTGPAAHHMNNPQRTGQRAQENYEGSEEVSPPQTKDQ

B1: ZEB2, endogenous (protein, UniProt O60315 1-1214)
chain: MKQPIMADGPRCKRRKQANPRRKNVVNYDNVVDTGSETDEEDKLHIAEDDGIANPLDQETSPASVPNHESSPHVSQALLPREEEEDEIREGGVEHPWHNNEILQASVDGPEEMKEDYDTMGPEATIQTAINNGTVKNANCTSDFEEYFAKRKLEERDGHAVSIEEYLQRSDTAIIYPEAPEELSRLGTPEANGQEENDLPPGTPDAFAQLLTCPYCDRGYKRLTSLKEHIKYRHEKNEENFSCPLCSYTFAYRTQLERHMVTHKPGTDQHQMLTQGAGNRKFKCTECGKAFKYKHHLKEHLRIHSGEKPYECPNCKKRFSHSGSYSSHISSKKCIGLISVNGRMRNNIKTGSSPNSVSSSPTNSAITQLRNKLENGKPLSMSEQTGLLKIKTEPLDFNDYKVLMATHGFSGTSPFMNGGLGATSPLGVHPSAQSPMQHLGVGMEAPLLGFPTMNSNLSEVQKVLQIVDNTVSRQKMDCKAEEISKLKGYHMKDPCSQPEEQGVTSPNIPPVGLPVVSHNGATKSIIDYTLEKVNEAKACLQSLTTDSRRQISNIKKEKLRTLIDLVTDDKMIENHNISTPFSCQFCKESFPGPIPLHQHERYLCKMNEEIKAVLQPHENIVPNKAGVFVDNKALLLSSVLSEKGMTSPINPYKDHMSVLKAYYAMNMEPNSDELLKISIAVGLPQEFVKEWFEQRKVYQYSNSRSPSLERSSKPLAPNSNPPTKDSLLPRSPVKPMDSITSPSIAELHNSVTNCDPPLRLTKPSHFTNIKPVEKLDHSRSNTPSPLNLSSTSSKNSHSSSYTPNSFSSEELQAEPLDLSLPKQMKEPKSIIATKNKTKASSISLDHNSVSSSSENSDEPLNLTFIKKEFSNSNNLDNKSTNPVFSMNPFSAKPLYTALPPQSAFPPATFMPPVQTSIPGLRPYPGLDQMSFLPHMAYTYPTGAATFADMQQRRKYQRKQGFQGELLDGAQDYMSGLDDMTDSDSCLSRKKIKKTESGMYACDLCDKTFQKSSSLLRHKYEHTGKRPHQCQICKKAFKHKHHLIEHSRLHSGEKPYQCDKCGKRFSHSGSYSQHMNHRYSYCKREAEEREAAEREAREKGHLEPTELLMNRAYLQSITPQGYSDSEERESMPRDGESEKEHEKEGEDGYGKLGRQDGDEEFEEEEEESENKSMDTDPETIRDEEETGDHSMDDSSEDGKMETKSDHEEDNMEDGM

What follows are molecules tested against T1, FLAG-tagged ZNF516 (Zinc-finger protein 516) (human) (UniProt Q92618) (assay: affinity purification with mass spectrometry; whole-cell extracts of HEK293T stably expressing FLAG-ZNF516 on anti-FLAG M2 affinity gel column, washed with cold PBS plus 0.1% Nonidet P-40, eluted with FLAG peptide, SDS-PAGE, silver stain, LC-MS/MS of bands).
T1 sequence: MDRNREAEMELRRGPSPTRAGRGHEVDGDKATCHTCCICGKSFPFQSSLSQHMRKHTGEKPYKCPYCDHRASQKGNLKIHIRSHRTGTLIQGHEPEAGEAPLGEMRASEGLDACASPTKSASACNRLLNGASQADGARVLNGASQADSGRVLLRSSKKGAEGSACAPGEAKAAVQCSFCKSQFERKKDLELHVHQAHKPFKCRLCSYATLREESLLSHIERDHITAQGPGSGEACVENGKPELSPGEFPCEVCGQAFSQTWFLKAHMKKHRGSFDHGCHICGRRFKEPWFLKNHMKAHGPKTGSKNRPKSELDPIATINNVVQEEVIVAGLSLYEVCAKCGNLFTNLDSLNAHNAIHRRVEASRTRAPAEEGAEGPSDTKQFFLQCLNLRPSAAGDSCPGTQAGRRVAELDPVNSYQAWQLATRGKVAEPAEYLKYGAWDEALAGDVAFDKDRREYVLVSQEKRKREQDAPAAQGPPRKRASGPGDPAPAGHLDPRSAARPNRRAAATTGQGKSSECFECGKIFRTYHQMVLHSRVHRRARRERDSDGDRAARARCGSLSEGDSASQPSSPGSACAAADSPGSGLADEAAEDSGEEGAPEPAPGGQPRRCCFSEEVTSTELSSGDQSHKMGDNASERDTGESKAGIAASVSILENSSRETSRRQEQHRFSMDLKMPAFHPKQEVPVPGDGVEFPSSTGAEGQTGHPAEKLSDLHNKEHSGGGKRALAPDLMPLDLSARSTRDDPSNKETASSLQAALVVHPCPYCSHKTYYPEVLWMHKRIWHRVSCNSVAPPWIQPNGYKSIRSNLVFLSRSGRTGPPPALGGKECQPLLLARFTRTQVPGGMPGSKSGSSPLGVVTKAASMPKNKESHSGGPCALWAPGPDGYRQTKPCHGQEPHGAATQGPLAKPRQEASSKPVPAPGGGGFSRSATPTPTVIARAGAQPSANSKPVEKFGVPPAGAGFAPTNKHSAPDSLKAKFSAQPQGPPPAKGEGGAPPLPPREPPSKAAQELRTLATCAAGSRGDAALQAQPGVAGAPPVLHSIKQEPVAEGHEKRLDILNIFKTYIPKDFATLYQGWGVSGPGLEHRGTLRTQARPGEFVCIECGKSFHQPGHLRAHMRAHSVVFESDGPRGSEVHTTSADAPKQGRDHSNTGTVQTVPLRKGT

binding, binds:
RBBP4, endogenous (from UniProt Q09028 1-425)
CtBP2 (C-terminal binding protein 2), endogenous (from UniProt P56545 1-445)
CoREST (corepressor of RE1 silencing transcription factor), endogenous (from UniProt Q9UKL0 1-485)
USP9X, endogenous (from UniProt Q93008 1-2554)
B1

Results are given in words; binding and its absence hold for the method and conditions named. In cells and extracts the contact can be indirect. Here binding means that the protein was enriched with, or labelled near, the bait; the list need not be complete. Tags and fused reporters may be left off the sequences shown.
